Values from PubChem BioAssay AID504808 (Drosophila RNAi Screening Center, 2011).

Test: 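Genes whose loss lifts activity of an E2F-responsive reporter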 (primary screen)
Cells: Drosophila S2 cells
Reagent: long dsRNA against Drosophila genes
Read-out: 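Firefly luciferase driven by E2F sites, normalised to Renilla luciferase on the same minimal promoter, measured by plate reader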
Reading the numbers: E2F firefly: higher = more E2F reporter activity; Renilla normaliser: higher = more normaliser reporter signal
Hit rule: 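a knock-down counted as active when the firefly/Renilla E2F signal rose above 50%, a threshold chosen arbitrarily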
The deposit covers about 21,000 reagents; this is an unselected part of those with a known target gene and a result. In the full data, 18 (0.084%) got an active call. 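Raw counts without plate normalisation, one of two replicates; the ratio scores behind the calls were not deposited.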 Unmarked entries are inactive. The numbers tell different reagents against one gene apart. A plus sign joins genes that one reagent is predicted to hit. The record does not give: the amount of reagent, the time to read-out.

target | reagent no. | E2F firefly, rep 1 | Renilla normaliser, rep 1
CG7120 | 1 | 1.05e5 | 4734
Arc2 | 1 | 97018 | 4322
CycK | 1 | 67678 | 3413
CG8908 | 1 | 1.54e5 | 5080
Aasdh | 1 | 1.54e5 | 5317
CG12551 (retired record) | 1 | 1.15e5 | 4629
CG12551 (retired record) | 2 | 1.12e5 | 4552
pot | 1 | 8374 | 852
CG15083 | 1 | 1.48e5 | 4557
mmm | 1 | 93495 | 3920
Sf3b3 | 1 | 63304 | 3594
CG3748 | 1 | 1.58e5 | 5274
CG16922 (retired record) | 1 | 1.03e5 | 5378
olf186-M | 1 | 1.46e5 | 4838
CG32833 | 1 | 81094 | 3487
TwdlS | 1 | 1.16e5 | 5947
Rheb | 1 | 71402 | 3356
CG12990 | 1 | 2.33e5 | 7953
Hsp67Bc | 1 | 87179 | 2159
toc | 1 | 1.28e5 | 5979
toc | 2 | 1.33e5 | 6569
toc | 3 | 82815 | 3719
Cpr76Bc | 1 | 1.35e5 | 6974
Orc6 | 1 | 1.40e5 | 4266
CG14506 | 1 | 1.27e5 | 6593
CG5726 | 1 | 70376 | 3598
CG15446 | 1 | 1.31e5 | 6963
CG31141 | 1 | 74325 | 2010
DnaJ-1 | 1 | 69540 | 3614
csul | 1 | 1.39e5 | 5080
phtm | 1 | 1.19e5 | 6811
l(3)87Df | 1 | 1.24e5 | 5670
cib | 1 | 94879 | 5222
CG41020 (retired record) | 1 | 81918 | 3285
CG9631 | 1 | 70101 | 3444
Muc68D | 1 | 72691 | 3819
Tim23 | 1 | 74569 | 4478
SCAR | 1 | 1.36e5 | 5004
ATPsynG | 1 | 1.37e5 | 4766
CG8858 | 1 | 98779 | 4274
DppIII | 1 | 1.20e5 | 5471
GstE9 | 1 | 1.35e5 | 4903
CG42780 | 1 | 81429 | 2301
Hem | 1 | 83190 | 3300
Coq4 + Gorab + frc | 1 | 1.78e5 | 9485
CG42557 + CG42558 | 1 | 83750 | 2995
CG42557 + CG42558 | 2 | 1817 | 896
CG13048 | 1 | 1.71e5 | 7770
Antdh | 1 | 1.35e5 | 6901
CG13116 | 1 | 1.66e5 | 5270
Atg10 + CG12822 | 1 | 1.40e5 | 5129
CG9400 | 1 | 7904 | 752

Continued (3 carried over from the part before).
target | reagent no. | E2F firefly, rep 1 | Renilla normaliser, rep 1
CG13116 | 1 | 1.66e5 | 5270
Atg10 + CG12822 | 1 | 1.40e5 | 5129
CG9400 | 1 | 7904 | 752
CG15140 | 1 | 1.04e5 | 4447
CG2854 | 1 | 1.16e5 | 4858
Atg9 | 1 | 81616 | 3480
CG32365 | 1 | 1.03e5 | 4305
CG32365 | 2 | 90377 | 3967
CG32365 | 3 | 94469 | 4368
flap | 1 | 1.20e5 | 4680
flap | 2 | 92652 | 3498
Acf | 1 | 2393 | 916
Hs3st-A | 1 | 55504 | 3299
Hs3st-A | 2 | 1.63e5 | 6051
Hs3st-A | 3 | 1.55e5 | 5158
CG6230 | 1 | 85320 | 4196
resilin | 1 | 1.69e5 | 5529
resilin | 2 | 1.63e5 | 5407
MRG15 | 1 | 75365 | 3575
Ilp1 | 1 | 1.27e5 | 6088
Cyp4c3 | 1 | 1853 | 864
CG42633 | 1 | 1.38e5 | 7214
CG9701 | 1 | 73696 | 3591
CG8097 | 1 | 1.53e5 | 5679
CG33116 | 1 | 82686 | 3810
tyf | 1 | 98761 | 4899
CG6462 | 1 | 86236 | 3373
Exn | 1 | 74567 | 3666
Exn | 2 | 1.61e5 | 8322
Tom7 | 1 | 1.36e5 | 5182
Tom7 | 2 | 1.43e5 | 4558
Acbp1 | 1 | 1.57e5 | 5578
CG32269 + CG32270 | 1 | 1.04e5 | 4882
Trax | 1 | 88738 | 3522
Rae1 | 1 | 70473 | 3292
